The source of these data is paper PMC7862700.

This is one part of the list. Construct or isoform of the protein are uncertain.

This experiment concerns the target T1, ELF2 (UniProt Q15723).
T1 sequence: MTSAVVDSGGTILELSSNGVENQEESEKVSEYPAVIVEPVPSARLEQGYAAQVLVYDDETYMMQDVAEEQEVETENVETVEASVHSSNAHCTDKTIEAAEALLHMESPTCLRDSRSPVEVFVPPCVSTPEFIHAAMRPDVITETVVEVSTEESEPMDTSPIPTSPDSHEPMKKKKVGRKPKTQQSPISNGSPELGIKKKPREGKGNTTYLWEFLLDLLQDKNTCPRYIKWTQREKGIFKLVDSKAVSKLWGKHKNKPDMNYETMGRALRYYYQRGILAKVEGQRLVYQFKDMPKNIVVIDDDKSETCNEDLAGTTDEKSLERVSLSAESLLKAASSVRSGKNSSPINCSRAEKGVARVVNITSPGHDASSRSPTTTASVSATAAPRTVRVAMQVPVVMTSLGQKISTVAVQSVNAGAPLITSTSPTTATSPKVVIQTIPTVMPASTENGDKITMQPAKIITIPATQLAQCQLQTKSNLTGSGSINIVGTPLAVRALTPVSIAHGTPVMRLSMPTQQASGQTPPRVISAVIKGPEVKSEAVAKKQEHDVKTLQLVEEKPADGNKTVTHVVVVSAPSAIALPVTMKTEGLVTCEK
Nature of the experiment: DAPPL (digital affinity profiling via proximity ligation, sequencing). The conditions noted are these: 10 mM Tris-HCl pH 7.5, 50 mM NaCl, 1 mM DTT, 4% glycerol, room temperature, 30 min; GST-TFs on glutathione beads, 16-mer random dsDNA library, 0.1% …; high values mean tight binding; double strand, one strand shown; scale: fold enrichment (6-mer frequency, TF over GST control).

TAAGAG: the binding signal amounted to 0.854.
For ACTGAA the value was 1.15; for AGTAAA, 1.07.
In the case of ATGTTT it was 1.41.
In the case of TCCAAA it was 1.14; in that of AATAGT, 1.23; in that of ATCTTA, 1.06.
For ATTCTC, the binding signal was found to be 1.3.
GCACGA returned a binding signal of 1.01.
For the sequence GATCAT, the binding signal amounted to 0.913.
In the case of CCACTG it was 1.16.
